# According to the supplement of paper PMC11732987, “Enantioselective OTUD7B fragment discovery through chemoproteomics screening and high-throughput optimisation” (Communications Chemistry, 2025):
# Sequences of proteins named here, by UniProt entry; tags and fusion partners are left off. A change or cut given only in a name is not applied to a line headed by its entry.
# UniProt Q02952: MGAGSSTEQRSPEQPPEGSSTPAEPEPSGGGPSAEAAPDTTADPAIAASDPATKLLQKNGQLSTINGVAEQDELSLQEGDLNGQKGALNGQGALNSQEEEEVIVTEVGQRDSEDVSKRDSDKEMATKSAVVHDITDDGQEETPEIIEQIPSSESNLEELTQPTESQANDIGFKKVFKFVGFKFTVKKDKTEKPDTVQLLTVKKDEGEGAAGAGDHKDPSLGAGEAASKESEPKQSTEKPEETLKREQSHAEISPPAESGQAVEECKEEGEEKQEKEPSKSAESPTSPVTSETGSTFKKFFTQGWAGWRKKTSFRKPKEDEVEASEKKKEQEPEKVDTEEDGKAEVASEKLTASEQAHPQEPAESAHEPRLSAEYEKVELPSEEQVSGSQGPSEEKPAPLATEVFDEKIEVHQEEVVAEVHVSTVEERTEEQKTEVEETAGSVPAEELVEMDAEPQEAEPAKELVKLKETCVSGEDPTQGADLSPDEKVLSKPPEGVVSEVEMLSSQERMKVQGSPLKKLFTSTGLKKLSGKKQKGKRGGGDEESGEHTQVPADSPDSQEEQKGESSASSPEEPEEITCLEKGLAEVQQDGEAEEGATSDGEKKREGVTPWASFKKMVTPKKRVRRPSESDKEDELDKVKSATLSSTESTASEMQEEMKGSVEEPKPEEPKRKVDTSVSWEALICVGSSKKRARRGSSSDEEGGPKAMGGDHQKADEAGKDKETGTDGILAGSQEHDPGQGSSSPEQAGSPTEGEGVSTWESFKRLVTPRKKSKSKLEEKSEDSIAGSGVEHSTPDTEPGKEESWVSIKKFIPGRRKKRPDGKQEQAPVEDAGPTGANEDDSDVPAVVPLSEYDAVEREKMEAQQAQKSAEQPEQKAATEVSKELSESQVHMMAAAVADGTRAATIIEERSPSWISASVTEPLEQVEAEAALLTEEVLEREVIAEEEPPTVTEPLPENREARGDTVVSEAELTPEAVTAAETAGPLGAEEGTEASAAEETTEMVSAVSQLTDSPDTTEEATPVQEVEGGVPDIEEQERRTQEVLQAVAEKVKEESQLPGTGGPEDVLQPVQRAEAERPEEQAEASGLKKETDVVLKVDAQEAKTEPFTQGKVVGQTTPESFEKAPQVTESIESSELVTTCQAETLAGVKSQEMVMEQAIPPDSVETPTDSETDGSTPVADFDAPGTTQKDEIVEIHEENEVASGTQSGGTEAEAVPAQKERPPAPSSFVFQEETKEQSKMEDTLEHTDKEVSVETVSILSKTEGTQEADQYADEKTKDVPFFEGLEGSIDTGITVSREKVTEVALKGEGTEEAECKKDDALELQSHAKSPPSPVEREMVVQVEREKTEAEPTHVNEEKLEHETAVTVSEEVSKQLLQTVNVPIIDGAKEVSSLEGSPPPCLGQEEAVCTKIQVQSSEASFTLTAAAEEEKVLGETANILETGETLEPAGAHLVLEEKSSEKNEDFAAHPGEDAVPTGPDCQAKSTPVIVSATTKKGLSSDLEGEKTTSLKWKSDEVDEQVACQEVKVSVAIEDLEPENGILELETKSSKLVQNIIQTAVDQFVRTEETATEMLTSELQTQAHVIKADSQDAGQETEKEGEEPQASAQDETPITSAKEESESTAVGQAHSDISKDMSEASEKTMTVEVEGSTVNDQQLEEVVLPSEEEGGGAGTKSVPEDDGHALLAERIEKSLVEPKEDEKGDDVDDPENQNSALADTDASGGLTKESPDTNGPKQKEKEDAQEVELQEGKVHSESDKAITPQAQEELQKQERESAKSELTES
# This is one part of the list. The data scatter; read single values as rough.
# Target: T1, AKAP12 C265 (UniProt Q02952)
# T1 sequence (whole entry): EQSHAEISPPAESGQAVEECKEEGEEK
# Assay: log2 mean competition ratio of IA-DTB cysteine labelling (DMSO/compound) (log2 ratio); higher = stronger cysteine engagement by compound
# Details: 50 µM; treatment time: 4 h; cell line lysate: HEK293T
# Protocol: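 IA-DTB competitive cysteine chemoproteomics in HEK293T RIPA lysate. Lysates were treated with compound 29 or 30 at 50 or 200 µM for 4 h, then IA-DTB (500 µM, 1 h), trypsin-digested, NeutrAvidin-enriched and analysed by diaPASEF. Competition ratio = intensity DMSO / intensity compound (n=4 treated, n=64 DMSO); binding: mean log2 CR ≥ 1 and p ≤ 0.05 plus QC filters. Target is the cysteine site.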
row,Compound,log2 mean competition ratio
1,O=C(CCl)N[C@@H]1CCCc2ccccc21,-0.342
2,O=C(CCl)N[C@H]1CCCc2ccccc21,-0.214

# Same assay, conditions: 200 µM; treatment time: 4 h; cell line lysate: HEK293T
row,Compound,log2 mean competition ratio
1,O=C(CCl)N[C@@H]1CCCc2ccccc21,-0.156
2,O=C(CCl)N[C@H]1CCCc2ccccc21,-0.299
